In assay [1] the target is CLIC4 (endogenous) (human (endogenous in HeLa S3)) (UniProt Q9Y696). Description: proximity ligation; Duolink in situ PLA on fixed HeLa S3 cells arrested at cytokinesis; pairs of primary antibodies to endogenous CLIC4 and anillin, ALIX or ezrin; single primary antibody as control.
The next assay deals with CLIC4-GFP (human) (UniProt Q9Y696). Description: co-IP; sensitive GFP-trap pull-down under low detergent (0.01% Triton X-100 in PBS); lysates of stable GFP or CLIC4-GFP HeLa S3 cells arrested at monopolar cytokinesis; GFP-Trap_A beads 3 h at 4 C; Western blot. Background: In western blotting, separated proteins are transferred to a membrane and probed.

By UniProt entry, the sequences of proteins in these tests, tags left out.
UniProt Q9Y696: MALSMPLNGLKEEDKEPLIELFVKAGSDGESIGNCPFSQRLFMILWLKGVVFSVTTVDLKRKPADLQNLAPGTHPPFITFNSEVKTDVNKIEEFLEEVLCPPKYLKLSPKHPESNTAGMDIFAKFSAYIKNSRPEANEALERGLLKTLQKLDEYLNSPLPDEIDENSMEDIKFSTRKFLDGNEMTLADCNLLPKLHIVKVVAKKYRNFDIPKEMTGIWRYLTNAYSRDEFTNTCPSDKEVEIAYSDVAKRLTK
UniProt Q8WUM4: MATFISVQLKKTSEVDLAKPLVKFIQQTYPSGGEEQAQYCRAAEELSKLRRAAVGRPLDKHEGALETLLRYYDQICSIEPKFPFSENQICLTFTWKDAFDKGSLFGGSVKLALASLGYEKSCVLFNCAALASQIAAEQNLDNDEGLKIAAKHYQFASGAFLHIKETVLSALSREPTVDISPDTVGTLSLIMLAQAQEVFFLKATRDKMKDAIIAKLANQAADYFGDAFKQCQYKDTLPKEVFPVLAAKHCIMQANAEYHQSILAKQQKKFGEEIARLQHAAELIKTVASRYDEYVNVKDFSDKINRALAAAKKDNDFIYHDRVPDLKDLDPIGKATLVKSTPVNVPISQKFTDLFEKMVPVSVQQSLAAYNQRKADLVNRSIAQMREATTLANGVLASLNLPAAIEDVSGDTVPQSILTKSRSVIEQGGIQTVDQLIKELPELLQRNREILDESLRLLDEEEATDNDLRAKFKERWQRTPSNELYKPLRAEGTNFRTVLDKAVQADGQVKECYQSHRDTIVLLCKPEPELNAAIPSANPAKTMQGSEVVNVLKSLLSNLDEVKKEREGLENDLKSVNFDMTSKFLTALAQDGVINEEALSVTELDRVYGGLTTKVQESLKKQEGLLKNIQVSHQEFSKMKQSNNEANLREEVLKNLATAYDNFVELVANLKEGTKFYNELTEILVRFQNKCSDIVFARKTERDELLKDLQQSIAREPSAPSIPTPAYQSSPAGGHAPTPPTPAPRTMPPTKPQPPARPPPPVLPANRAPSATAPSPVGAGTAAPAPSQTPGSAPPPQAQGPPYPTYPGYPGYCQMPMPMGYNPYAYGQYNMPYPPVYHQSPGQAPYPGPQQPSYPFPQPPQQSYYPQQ

No constants are given. Whether binding was seen depends on the method and setting. In cells and extracts the contact can be indirect. Some entries that bind do so weakly or less than the wild type.

Turning to ALIX (from UniProt Q8WUM4 1-868), the binding entry (in assay [1]; with CLIC4-GFP (human)) was “binds” in each case.

The values above are taken from article PMC6933522.
